Experimental data from the supplement of paper PMC10735217.
Counter-ions that a name gives are not always drawn. This is one part of the list. Single values are uncertain here, since repeats match poorly.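 In a drug-repurposing library screen, luminescence reads luciferase driven by eight TEAD-binding elements, stably integrated into human kidney-derived cells. Compounds scoring over five robust Z scores above the plate mean are called hits.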

Tested on: HEK293A TEAD-LUC reporter
Test: TEAD-luciferase reporter activity (YAP activation), robust Z score vs plate; higher = stronger YAP/TEAD activation
Settings: 24 h

Compound | TEAD-luciferase reporter activity (compound concentration: 200 nM) | TEAD-luciferase reporter activity (compound concentration: 2 uM) | TEAD-luciferase reporter activity (compound concentration: 10 uM)
COc1cc2c(Oc3ccc(NC(=O)C4(C(=O)Nc5ccc(F)cc5)CC4)cc3F)ccnc2cc1OCCCN1CCOCC1 [foretinib] | inactive: -0.914 | inactive: -2.3 | inactive: -2.03
Nc1ccn([C@@H]2O[C@H](CO[P@@]3(=O)OCC[C@@H](c4ccncc4)O3)[C@@H](O)[C@@H]2O)c(=O)n1 | inactive: -1.03 | inactive: -1.02 | inactive: -1.01
CCCCC(=O)c1cnc2c(OCCO)cccc2c1Nc1ccccc1C | inactive: 1.5 | inactive: -0.488 | inactive: 0.685
CCOC(=O)C1=C(C)NC(C)=C(C(=O)OC)C1c1ccccc1OC(F)F (stereo not given) | inactive: 0.16 | inactive: -1.49 | inactive: 0.104
C=CC(C)(C)c1cc(/C=C/C(=O)c2ccc(O)cc2)c(OC)cc1O [Licochalcone-A, Synthetic] | inactive: -0.621 | – | inactive: 0.867
C=CC(C)(C)c1cc(/C=C/C(=O)c2ccc(O)cc2)c(OC)cc1O [Licochalcone A] | – | inactive: -1.39 | –
COc1cc(/C=C/C(=O)N2CCN(CC3CCn4c(nc5ccccc54)S3)CC2)cc(OC)c1OC (stereo not given) | inactive: -1.05 | inactive: -1 | inactive: 1.93
COc1cc2c(Nc3ccc(Sc4nccn4C)c(Cl)c3)c(C#N)cnc2cc1N1CCC(N2CCCC2)CC1 [balamapimod] | inactive: -0.928 | inactive: 2 | inactive: 1.77
O=C(COCC(=O)Nc1c(I)cc(I)c(C(=O)O)c1I)Nc1c(I)cc(I)c(C(=O)O)c1I | inactive: -0.45 | inactive: -0.825 | inactive: 0.471
COc1cccc2[nH]c3c4c(c5c(c3c12)C(=O)NC5=O)CCC4 | inactive: -1.39 | inactive: -0.574 | inactive: 1.21
CO/N=C(/C(=O)NC1C(=O)N2C(C(=O)O)=C(COC(C)=O)CSC12)c1csc(N)n1 (stereo not given) [cefotaxime salt] | inactive: 2.95 | inactive: 0.534 | inactive: 0.716
Oc1cc(O)c2cc(O)c(-c3ccc(O)c(O)c3)[o+]c2c1 [Cyanidin chloride] | inactive: 1.74 | inactive: -0.279 | inactive: -0.652
C[C@@H](C(=O)N1CCOCC1)N1CC[C@H](NS(=O)(=O)/C=C/c2ccc(Cl)s2)C1=O | active: 5.74 | inactive: -0.993 | inactive: -1.41
CCCCn1c(=O)n(CCC)c(=O)c2c(NC)n(C(=O)OC)nc21 | inactive: -1.85 | inactive: 0.192 | inactive: 3.24
O=C(O)/C(=C\c1c(C(=O)O)[nH]c2cc(Cl)cc(Cl)c12)c1ccccc1 | inactive: 0.759 | inactive: -1.96 | inactive: -1
ClI(Cl)Cl [Iodine trichloride] | inactive: 0.245 | inactive: 0.906 | inactive: 0.00217
Cc1c(Br)ccc2c1CN1C(=N2)NC(=O)C1C (stereo not given) | active: 5.84 | inactive: 2.35 | inactive: -1.24
CN1CCc2c([N+](=O)[O-])cc3[nH]c(=O)c(=O)[nH]c3c2C1 | inactive: -1.45 | inactive: -0.277 | inactive: 1.59
O=C(O)CCCCc1ccc(I)cc1 | inactive: -0.56 | inactive: 0.194 | active: 8.94

Reformatted: entries from further up

| Compound | TEAD-luciferase reporter activity (compound concentration: 200 nM) | TEAD-luciferase reporter activity (compound concentration: 2 uM) | TEAD-luciferase reporter activity (compound concentration: 10 uM) |
| --- | --- | --- | --- |
| C[C@@H](C(=O)N1CCOCC1)N1CC[C@H](NS(=O)(=O)/C=C/c2ccc(Cl)s2)C1=O | active: 5.74 | inactive: -0.993 | inactive: -1.41 |
| CCCCn1c(=O)n(CCC)c(=O)c2c(NC)n(C(=O)OC)nc21 | inactive: -1.85 | inactive: 0.192 | inactive: 3.24 |
| O=C(O)/C(=C\c1c(C(=O)O)[nH]c2cc(Cl)cc(Cl)c12)c1ccccc1 | inactive: 0.759 | inactive: -1.96 | inactive: -1 |
| ClI(Cl)Cl [Iodine trichloride] | inactive: 0.245 | inactive: 0.906 | inactive: 0.00217 |
| Cc1c(Br)ccc2c1CN1C(=N2)NC(=O)C1C (stereo not given) | active: 5.84 | inactive: 2.35 | inactive: -1.24 |
| CN1CCc2c([N+](=O)[O-])cc3[nH]c(=O)c(=O)[nH]c3c2C1 | inactive: -1.45 | inactive: -0.277 | inactive: 1.59 |
| O=C(O)CCCCc1ccc(I)cc1 | inactive: -0.56 | inactive: 0.194 | active: 8.94 |

Additional records follow:

Compound | TEAD-luciferase reporter activity (compound concentration: 200 nM) | TEAD-luciferase reporter activity (compound concentration: 2 uM) | TEAD-luciferase reporter activity (compound concentration: 10 uM)
CC(=O)N1Cc2ccccc2CC2(CCCCN2CC2CCNC2)C1 (stereo not given) | inactive: -2.11 | – | inactive: 4.15
O=C(N[C@@H](Cc1ccc(F)cc1)C(=O)N1CCC(O)CC1)c1cc2cc(Cl)ncc2[nH]1 | inactive: 0.24 | inactive: 0.00597 | inactive: 1.09
O=C1NCc2ccccc2CC12CCCN2Cc1cccc(Br)c1 (stereo not given) | inactive: -0.774 | – | inactive: 1.65
CC(=O)N1CCC2(CC1)CN(C(=O)CCC(=O)O)Cc1ccccc1O2 | inactive: -0.552 | – | inactive: 3.01
O=C(Nc1cccc(Cl)c1)Nc1ncc(CCNc2ncnc3ccsc23)s1 | inactive: 1.58 | inactive: -0.62 | inactive: -0.273
O=C(O)CCC(=O)N1Cc2ccccc2CC2(CCCCN2CCc2ccccc2)C1 (stereo not given) | active: 5.9 | – | inactive: 3.44
CCc1c2c(nc3ccc(OC(=O)N4CCC(N5CCCCC5)CC4)cc13)-c1cc3c(c(=O)n1C2)COC(=O)[C@]3(O)CC [etirinotecan pegol] | – | inactive: -0.994 | –
CCc1c2c(nc3ccc(OC(=O)N4CCC(N5CCCCC5)CC4)cc13)-c1cc3c(c(=O)n1C2)COC(=O)[C@]3(O)CC [Irinotecan hydrochloride] | inactive: -1.45 | – | inactive: 0.854
c1cnc2cc3c(cc2n1)[C@@H]1CNC[C@H]3C1 | inactive: 4.97 | – | inactive: 1.75
c1cnc2cc3c(cc2n1)[C@@H]1CNC[C@H]3C1 [Varenicline tartrate] | – | inactive: -0.871 | –
Cc1cc2c(N3CCCC3)nc(N3CCCC3)nc2n1C | inactive: 4.64 | inactive: 1.62 | inactive: -0.979
N#Cc1ccc(C2CCCc3cncn32)cc1 (stereo not given) [fadrozole] | inactive: 0.664 | inactive: 1.66 | inactive: -0.24
CCOC(=O)[C@H](CCc1ccccc1)N[C@@H](C)C(=O)N1Cc2cc(OC)c(OC)cc2C[C@H]1C(=O)O | inactive: -1.14 | inactive: -1.25 | inactive: 0.665
CCCCCC(/C=C/n1ccnc1)OC(=O)c1cccnc1 (stereo not given) [nicogrelate] | inactive: -1.35 | inactive: 0.976 | inactive: -0.686
O=C1NCN(c2ccccc2)C12CCN(CCCC(c1ccc(F)cc1)c1ccc(F)cc1)CC2 [Fluspirilene] | inactive: -0.753 | inactive: -0.336 | inactive: -0.184
N#Cc1ccccc1/C=C/C=C/C(=O)N1CCN(c2ccccn2)CC1 | inactive: 0.749 | inactive: 0.308 | inactive: 2.49
CC/C=C(\C(=O)N[C@@H]1C(=O)N2C(C(=O)OCOC(=O)C(C)(C)C)=C(COC(N)=O)CS[C@H]12)c1csc(N)n1 [Cefcapene Pivoxil Hydrochloride Monohydrate] | inactive: -1.13 | – | inactive: -3.5
CC/C=C(\C(=O)N[C@@H]1C(=O)N2C(C(=O)OCOC(=O)C(C)(C)C)=C(COC(N)=O)CS[C@H]12)c1csc(N)n1 [cefcapene pivoxil] | – | inactive: -0.211 | –
